Measured data: PubChem BioAssay AID504744 (Drosophila RNAi Screening Center, 2011)

Screen: 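Identify dsRNAs that increase or decrease phospho-dAkt after insulin treatment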 (primary screen)
Cell system: Drosophila Kc167 cells
Reagent: long dsRNA against Drosophila genes, 250 ng dsRNA per well of a 384-well plate
Duration: 3 days of knock-down, then overnight serum-free starvation before stimulation
Treatment: bovine insulin at 387 nM for 10 minutes after 12 h without serum
Measurement: 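In-cell antibody fluorescence for phospho-dAkt in each well over DNA-dye signal, with log2 residuals expressed as z-scores adjusted for cell count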
Hit rule: 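Hit in the insulin screen when the two-replicate mean z-score is more extreme than plus or minus 2.5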
The deposit covers about 23,000 reagents; below is a random part of those with a known target gene and a result. Over the whole deposit, 98 (0.43%) got an active call. 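Only hit calls are given; the phospho-dAkt signals, z-scores and hit direction were not deposited.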 Reagents against one gene are numbered here.

CG30010 gave inactive. Silencing of l(2)k05819 (lethal (2) k05819) came out at: inactive. For Pkc98E (Protein C kinase 98E) the deposit lists inactive. With knock-down of CG7646, the record shows inactive. Orc2 (Origin recognition complex subunit 2) gave inactive. Crys (Crystallin) scored inactive.

Against Meics (Meiotic central spindle), the entry reads inactive. hbn (homeobrain) #1 scored inactive. Depletion of hbn (homeobrain) #2 gave: inactive. After knock-down of hbn (homeobrain) #3 the results were inactive. For hbn (homeobrain) #4 the deposit lists inactive. Against Or23a (Odorant receptor 23a) the deposit lists inactive.

Against wdp (windpipe), the values are inactive. Knock-down of CG9676 came out at: inactive. For CG11658, the entry reads inactive. After knock-down of CG14826 the results were inactive. Depletion of jus (julius seizure) #1 resulted in: inactive. For jus (julius seizure) #2, the values are inactive.

With knock-down of hang (hangover) #1, the screen gave inactive. Against hang (hangover) #2, the entry reads inactive. Silencing of CG3868 came out at: inactive. Knock-down of sov (small ovary) gave: inactive. Cad89D (Cadherin 89D) gave inactive.
